Assay results taken from patent US20200009173A1, “TRIAZOLE-CONTAINING MACROLIDES AND OPHTHALMIC USES THEREFOR” (Tetard, Inc., priority 2017, published 2020).
At least one structure is not confirmed: it was looked up by name or label, or the drawing left a doubt.

System: S. epidermidis
Test: MICs of solithromycin and comparator drugs, S. epidermidis (30 species)
Assay type: cell-based
Design: unit not given beside the values
Description: EXAMPLE. The formulations described herein show overall higher potency against ocular pathogens than commercial standards.
MICs (μg/ml) of Solithromycin and Comparator Drugs against Bacterial Species

SMILES: COc1c(N2C[C@@H]3CCCN[C@@H]3C2)c(F)cc2c(=O)c(C(=O)O)cn(C3CC3)c12 [Moxifloxacin]
- MIC Range: 0.03->8
